Assay results as given in US20230357362A1.
Results are given in words; binding and its absence hold for the method and conditions named. Some entries that bind do so weakly or less than the wild type. Where a sequence is shown, tags or fusion partners need not be part of it.

The chains behind the UniProt entries cited, without tags or fusion partners. Where a name states a change or a piece, a line headed by the entry shows the natural chain unless it says otherwise. A line that says so, or that is headed by a name, gives the form on record, which may keep a tag or linker.
endogenous fibronectin of human CRC cells (Isoform 10 of Fibronectin OS = Homo sapiens GN = FN1) (P02751, form named): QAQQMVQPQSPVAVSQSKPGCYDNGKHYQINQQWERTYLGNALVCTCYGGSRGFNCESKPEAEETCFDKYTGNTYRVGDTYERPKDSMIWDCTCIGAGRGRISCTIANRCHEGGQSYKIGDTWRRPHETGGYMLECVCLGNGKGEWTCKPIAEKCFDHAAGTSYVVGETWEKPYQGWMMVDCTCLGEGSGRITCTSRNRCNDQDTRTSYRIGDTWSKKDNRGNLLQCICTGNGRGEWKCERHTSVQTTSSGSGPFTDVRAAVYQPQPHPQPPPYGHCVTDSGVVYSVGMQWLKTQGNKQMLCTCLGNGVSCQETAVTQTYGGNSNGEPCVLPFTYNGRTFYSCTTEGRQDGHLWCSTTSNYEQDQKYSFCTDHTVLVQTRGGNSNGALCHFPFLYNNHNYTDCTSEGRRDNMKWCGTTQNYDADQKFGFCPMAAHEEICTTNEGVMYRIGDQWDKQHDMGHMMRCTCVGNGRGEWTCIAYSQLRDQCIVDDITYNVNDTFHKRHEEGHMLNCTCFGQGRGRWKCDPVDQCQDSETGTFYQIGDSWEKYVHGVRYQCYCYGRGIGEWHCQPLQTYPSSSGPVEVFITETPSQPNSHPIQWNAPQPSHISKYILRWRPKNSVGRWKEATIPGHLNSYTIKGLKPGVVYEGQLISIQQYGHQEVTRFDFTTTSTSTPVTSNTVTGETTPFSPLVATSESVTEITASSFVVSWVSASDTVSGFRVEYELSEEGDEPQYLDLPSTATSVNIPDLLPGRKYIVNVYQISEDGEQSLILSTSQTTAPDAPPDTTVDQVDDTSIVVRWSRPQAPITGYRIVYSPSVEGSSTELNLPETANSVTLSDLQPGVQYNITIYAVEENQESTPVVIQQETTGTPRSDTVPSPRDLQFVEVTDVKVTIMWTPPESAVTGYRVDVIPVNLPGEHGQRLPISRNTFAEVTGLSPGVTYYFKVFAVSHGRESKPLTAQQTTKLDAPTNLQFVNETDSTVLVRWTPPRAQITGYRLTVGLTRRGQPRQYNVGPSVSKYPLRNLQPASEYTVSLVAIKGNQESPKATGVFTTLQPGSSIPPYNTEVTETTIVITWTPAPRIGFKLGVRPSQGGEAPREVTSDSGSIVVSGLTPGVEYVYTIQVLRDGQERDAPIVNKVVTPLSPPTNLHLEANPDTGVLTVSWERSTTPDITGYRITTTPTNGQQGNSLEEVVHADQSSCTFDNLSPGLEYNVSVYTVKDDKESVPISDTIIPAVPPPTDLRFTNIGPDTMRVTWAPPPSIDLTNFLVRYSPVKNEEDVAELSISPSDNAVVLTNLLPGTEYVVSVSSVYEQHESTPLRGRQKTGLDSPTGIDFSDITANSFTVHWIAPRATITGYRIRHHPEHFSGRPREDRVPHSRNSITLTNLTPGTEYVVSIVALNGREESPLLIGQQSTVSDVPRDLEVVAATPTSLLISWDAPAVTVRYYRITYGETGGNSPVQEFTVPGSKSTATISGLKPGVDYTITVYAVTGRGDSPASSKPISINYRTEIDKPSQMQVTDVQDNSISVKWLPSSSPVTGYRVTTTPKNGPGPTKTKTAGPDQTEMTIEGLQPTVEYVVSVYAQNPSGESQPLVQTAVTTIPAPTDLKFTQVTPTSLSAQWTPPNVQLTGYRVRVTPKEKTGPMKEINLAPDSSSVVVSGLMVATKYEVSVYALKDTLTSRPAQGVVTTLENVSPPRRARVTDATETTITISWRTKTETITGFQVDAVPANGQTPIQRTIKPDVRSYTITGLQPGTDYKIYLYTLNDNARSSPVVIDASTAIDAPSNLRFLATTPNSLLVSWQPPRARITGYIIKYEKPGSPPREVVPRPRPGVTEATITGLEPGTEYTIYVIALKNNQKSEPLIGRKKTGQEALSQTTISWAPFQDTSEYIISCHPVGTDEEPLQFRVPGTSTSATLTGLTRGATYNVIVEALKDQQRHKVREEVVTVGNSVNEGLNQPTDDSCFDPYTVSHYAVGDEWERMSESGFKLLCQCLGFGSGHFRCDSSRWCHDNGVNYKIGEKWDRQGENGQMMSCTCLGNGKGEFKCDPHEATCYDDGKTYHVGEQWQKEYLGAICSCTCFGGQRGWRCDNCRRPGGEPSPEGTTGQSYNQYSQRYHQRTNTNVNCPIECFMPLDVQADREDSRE

Legend:
[1] = biological target: endogenous fibronectin of human CRC cells (Isoform 10 of Fibronectin OS = Homo sapiens GN = FN1) (Homo sapiens) (UniProt P02751); assay: immunofluorescence colocalization on HCT116 cells (FIG. 11D)
[2] = biological target: endogenous fibronectin of human CRC cells (Isoform 10 of Fibronectin OS = Homo sapiens GN = FN1) (Homo sapiens) (UniProt P02751); assay: immunofluorescence colocalization on HCT116 cells

B1: His-tagged full-length dysadherin overexpressed in HCT116 cells (protein, human, UniProt Q96DB9 22-178, looked up, not shown: small tags and cut ends)
chain: QTLKDTTSSSSADSTIMDIQVPTRAPDAVYTELQPTSPTPTWPADETPQPQTQTQQLEGTDGPLVTDPETHKSTKAAHPTDDTTTLSERPSPSTDVQTDPQTLKPSGFHEDDPFFYDEHTLRKRGLLVAAVLFITGIIILTSGKCRQLSRLCRNRCR
B1 was tested, and the binding [1] was “binds” and the binding [2] was “binds”.
